The text below walks through data of paper PMC6821171.

Amino acid sequences for entries named in this document (tags omitted).
UniProt P49750: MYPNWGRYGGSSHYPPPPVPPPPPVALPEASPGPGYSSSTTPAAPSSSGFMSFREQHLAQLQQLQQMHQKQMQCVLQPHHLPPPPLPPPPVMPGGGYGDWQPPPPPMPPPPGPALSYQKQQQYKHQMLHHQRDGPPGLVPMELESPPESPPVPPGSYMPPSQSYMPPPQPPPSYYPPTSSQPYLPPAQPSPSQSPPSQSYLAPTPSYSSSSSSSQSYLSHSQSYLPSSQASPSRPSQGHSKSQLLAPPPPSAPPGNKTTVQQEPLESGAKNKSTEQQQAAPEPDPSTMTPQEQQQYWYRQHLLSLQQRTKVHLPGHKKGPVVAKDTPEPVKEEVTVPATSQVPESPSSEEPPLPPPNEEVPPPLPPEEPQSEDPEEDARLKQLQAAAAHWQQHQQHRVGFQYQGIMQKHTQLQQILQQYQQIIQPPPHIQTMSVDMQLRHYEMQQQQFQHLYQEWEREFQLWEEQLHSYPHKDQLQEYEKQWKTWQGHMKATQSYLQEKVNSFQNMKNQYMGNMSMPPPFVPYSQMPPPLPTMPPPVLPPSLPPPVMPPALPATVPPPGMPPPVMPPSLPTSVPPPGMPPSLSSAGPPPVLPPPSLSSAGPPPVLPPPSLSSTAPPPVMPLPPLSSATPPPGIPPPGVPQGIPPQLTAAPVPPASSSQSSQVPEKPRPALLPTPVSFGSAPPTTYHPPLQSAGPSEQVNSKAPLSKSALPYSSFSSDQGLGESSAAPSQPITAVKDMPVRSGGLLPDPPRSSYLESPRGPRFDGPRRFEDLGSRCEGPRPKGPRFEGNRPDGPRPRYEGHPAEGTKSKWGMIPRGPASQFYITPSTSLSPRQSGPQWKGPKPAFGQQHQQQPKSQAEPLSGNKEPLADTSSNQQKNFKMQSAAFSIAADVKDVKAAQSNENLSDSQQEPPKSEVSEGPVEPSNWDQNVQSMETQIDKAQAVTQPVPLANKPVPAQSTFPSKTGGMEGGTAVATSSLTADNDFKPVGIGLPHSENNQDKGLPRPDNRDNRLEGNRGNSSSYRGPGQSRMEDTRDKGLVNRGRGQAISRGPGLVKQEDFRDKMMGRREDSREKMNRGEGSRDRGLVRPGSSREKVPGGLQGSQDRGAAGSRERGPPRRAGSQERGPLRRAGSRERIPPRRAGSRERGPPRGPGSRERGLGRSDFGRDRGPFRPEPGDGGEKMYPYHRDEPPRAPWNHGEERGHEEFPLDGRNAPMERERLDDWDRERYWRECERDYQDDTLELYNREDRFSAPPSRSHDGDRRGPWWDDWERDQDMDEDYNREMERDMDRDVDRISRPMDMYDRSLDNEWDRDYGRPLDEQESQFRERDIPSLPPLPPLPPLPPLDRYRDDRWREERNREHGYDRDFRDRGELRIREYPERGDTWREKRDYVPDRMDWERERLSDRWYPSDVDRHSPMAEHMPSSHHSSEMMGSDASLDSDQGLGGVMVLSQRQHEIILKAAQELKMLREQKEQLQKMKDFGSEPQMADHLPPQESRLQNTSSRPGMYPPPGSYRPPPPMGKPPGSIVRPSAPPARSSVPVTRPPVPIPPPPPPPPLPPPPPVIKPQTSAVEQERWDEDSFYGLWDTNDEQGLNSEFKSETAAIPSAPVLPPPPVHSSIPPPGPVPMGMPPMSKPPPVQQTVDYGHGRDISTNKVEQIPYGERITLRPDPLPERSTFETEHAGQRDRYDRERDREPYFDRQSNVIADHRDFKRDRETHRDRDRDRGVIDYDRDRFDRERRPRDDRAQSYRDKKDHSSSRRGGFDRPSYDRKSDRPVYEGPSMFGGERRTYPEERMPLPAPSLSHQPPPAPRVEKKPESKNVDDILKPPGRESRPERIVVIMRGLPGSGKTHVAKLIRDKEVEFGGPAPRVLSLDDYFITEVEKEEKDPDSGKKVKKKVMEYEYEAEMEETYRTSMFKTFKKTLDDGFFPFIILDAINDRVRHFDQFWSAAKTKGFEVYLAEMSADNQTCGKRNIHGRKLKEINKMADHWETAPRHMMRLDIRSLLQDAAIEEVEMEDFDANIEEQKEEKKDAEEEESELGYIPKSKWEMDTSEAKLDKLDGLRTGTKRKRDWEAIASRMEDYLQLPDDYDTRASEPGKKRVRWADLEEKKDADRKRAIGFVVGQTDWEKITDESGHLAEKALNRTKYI
UniProt P13010: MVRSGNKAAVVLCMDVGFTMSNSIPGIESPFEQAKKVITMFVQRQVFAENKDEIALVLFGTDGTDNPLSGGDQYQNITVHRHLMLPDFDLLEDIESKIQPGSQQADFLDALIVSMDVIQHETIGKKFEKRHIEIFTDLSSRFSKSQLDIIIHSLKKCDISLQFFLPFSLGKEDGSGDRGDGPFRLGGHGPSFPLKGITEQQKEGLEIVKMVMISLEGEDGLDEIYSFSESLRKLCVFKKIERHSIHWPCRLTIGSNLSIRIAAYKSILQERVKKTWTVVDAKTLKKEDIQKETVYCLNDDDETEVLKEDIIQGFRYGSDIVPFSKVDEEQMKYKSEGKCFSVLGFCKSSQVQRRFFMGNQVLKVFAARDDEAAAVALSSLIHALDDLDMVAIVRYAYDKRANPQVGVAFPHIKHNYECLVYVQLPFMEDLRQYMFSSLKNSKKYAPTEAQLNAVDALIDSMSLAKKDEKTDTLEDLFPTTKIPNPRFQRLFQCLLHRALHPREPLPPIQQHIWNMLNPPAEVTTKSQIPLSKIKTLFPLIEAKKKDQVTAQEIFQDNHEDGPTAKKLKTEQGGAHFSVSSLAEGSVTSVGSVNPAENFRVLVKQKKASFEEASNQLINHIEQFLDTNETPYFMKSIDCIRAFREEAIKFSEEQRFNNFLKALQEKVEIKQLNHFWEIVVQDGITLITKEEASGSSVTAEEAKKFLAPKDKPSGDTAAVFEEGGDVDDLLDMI
UniProt Q9NR30: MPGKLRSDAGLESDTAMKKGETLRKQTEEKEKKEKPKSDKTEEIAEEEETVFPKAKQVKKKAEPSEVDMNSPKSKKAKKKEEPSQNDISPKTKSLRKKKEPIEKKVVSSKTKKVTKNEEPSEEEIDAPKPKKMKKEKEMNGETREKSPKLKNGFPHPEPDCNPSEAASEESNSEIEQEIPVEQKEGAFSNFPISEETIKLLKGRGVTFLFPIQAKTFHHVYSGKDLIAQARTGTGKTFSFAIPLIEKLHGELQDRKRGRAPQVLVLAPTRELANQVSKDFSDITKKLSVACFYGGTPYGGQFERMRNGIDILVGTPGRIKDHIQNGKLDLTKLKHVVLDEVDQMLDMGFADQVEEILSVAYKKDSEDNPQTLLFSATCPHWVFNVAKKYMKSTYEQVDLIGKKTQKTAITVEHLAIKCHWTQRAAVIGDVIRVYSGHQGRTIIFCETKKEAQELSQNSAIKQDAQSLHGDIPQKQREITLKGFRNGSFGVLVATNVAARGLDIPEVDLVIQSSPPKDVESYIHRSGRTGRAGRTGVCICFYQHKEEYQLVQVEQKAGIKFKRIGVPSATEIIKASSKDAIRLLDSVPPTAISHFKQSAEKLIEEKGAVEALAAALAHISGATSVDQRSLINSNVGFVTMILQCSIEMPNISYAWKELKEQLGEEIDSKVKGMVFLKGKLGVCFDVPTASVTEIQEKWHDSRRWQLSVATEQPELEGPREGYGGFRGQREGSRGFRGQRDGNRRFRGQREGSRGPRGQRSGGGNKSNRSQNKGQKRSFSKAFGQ
UniProt Q9NRC8: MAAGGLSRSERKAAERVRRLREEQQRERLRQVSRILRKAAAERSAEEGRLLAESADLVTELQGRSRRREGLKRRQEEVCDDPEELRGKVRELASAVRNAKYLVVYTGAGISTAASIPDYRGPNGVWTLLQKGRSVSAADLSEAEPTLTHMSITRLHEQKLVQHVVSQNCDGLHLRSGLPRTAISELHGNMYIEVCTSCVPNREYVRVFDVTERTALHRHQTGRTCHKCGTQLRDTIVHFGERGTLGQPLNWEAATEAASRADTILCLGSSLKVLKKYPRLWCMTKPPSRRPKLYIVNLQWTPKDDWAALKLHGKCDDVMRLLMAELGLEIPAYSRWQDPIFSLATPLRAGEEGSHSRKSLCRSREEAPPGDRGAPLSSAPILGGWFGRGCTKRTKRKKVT
UniProt P21127: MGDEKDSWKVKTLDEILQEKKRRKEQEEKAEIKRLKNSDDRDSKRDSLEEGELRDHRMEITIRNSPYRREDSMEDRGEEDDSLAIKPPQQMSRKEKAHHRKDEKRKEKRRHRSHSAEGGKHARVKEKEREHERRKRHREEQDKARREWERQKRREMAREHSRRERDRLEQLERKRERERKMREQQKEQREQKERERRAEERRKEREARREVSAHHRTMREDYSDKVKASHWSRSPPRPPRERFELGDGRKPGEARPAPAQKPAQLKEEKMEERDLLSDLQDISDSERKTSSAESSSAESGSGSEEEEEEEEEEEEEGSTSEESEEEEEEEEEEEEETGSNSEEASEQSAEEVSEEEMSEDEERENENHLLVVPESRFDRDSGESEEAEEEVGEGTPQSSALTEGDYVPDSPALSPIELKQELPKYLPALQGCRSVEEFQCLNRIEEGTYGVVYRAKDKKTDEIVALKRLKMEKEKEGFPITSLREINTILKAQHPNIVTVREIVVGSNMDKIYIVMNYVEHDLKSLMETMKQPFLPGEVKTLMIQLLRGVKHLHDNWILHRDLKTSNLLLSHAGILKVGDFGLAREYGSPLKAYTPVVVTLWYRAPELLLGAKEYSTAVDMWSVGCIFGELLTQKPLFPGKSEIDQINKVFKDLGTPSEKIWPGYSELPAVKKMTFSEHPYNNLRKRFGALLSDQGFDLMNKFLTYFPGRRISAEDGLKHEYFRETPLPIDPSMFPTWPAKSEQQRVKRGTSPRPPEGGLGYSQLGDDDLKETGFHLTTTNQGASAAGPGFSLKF
UniProt Q9NWH9: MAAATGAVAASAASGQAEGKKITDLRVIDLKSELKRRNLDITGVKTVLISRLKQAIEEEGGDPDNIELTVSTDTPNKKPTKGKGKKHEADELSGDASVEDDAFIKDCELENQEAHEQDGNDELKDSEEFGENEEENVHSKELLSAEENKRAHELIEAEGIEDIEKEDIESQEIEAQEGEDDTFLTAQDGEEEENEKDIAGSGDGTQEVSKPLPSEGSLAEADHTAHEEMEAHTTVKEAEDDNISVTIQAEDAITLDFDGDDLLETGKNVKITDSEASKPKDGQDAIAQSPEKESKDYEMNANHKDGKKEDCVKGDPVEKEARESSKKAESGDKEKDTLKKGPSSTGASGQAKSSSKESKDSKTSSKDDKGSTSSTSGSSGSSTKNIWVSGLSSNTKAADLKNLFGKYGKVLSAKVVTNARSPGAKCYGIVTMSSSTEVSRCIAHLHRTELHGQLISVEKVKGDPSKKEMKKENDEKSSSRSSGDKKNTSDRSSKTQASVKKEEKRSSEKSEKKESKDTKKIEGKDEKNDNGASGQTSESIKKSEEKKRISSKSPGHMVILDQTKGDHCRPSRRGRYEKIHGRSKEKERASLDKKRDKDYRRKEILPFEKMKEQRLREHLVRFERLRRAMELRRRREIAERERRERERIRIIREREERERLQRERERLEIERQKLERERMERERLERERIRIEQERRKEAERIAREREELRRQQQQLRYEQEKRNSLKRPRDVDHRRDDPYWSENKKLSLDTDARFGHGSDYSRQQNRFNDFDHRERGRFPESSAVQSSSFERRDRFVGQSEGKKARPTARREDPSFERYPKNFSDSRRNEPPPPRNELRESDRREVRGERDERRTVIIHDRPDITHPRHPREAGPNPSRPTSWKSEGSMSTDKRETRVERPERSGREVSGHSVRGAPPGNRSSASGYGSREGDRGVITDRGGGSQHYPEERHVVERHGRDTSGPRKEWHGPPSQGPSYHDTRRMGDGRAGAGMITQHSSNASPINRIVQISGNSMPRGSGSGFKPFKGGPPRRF

These are yes or no findings as the source states them, for the method shown. In cells and extracts the contact can be indirect. Here binding means that the protein was enriched with, or labelled near, the bait; the list need not be complete. A no says only that the protein was not detected with the bait.

This assay has as its target HBF (His6-biotinylation sequence-FLAG tag)-LYAR (human) (UniProt Q9NX58). Description: affinity purification with mass spectrometry; HBF-LYAR as bait; sequential two-step pulldown (Ni-NTA pulldown, RNase A treatment, FLAG pulldown) from nuclear extract of HBF-LYAR-TO cells treated with Dox for 24 h; SDS-PAGE, in-gel digestion with trypsin and Lys-C, nano LC-MS/MS; T-REx 293 cells as control.
“Transcription factor 20 (from UniProt Q9UGU0 1-1960)”: the binding entry is “binds”.

As to “YLP motif-containing protein 1 (from UniProt P49750 1-2146)”, the binding entry is “binds”. As for “X-ray repair cross-complementing protein 5 (from UniProt P13010 1-732)”, the binding entry was “binds”. In the case of “FACT complex subunit SPT16 (from UniProt Q9Y5B9 1-1047)” it was “binds”; in that of “histone acetyltransferase GCN5 (from UniProt Q92830 1-837)”, “no binding”; in that of “Casein kinase II subunit alpha (from UniProt P19784 1-350)”, “binds”.

Consider “DNA damage-binding protein 1 (from UniProt Q16531 1-1140)”, for which the binding result was “binds”. Take “General transcription factor IIF subunit 1 (from UniProt P35269 1-517)”: the binding result is listed as “binds”.

In the case of Protein max (from UniProt P61244 1-160), the binding result is on record as “binds”. The same measure for “FACT complex subunit SSRP1 (from UniProt Q08945 1-709)”: “binds”. Take “Casein kinase II subunit beta (from UniProt P67870 1-215)”: the binding result was “binds”. In the case of “histone acetyltransferase p300 (from UniProt Q09472 1-2414)” it was “no binding”; in that of DDX21 (from UniProt Q9NR30 1-783), “binds”; in that of “nucleophosmin (from UniProt P06748 1-294)”, “binds”. As to “DNA topoisomerase 1 (from UniProt P11387 1-765)”, the binding entry was “binds”.

As for “Proline-, glutamic acid- and leucine-rich protein 1 (from UniProt Q8IZL8 1-1130)”, the binding entry is listed as “binds”. Consider SIRT7 (from UniProt Q9NRC8 1-400), for which the binding entry is recorded as “no binding”.

Turning to “Cyclin-dependent kinase 11B (from UniProt P21127 1-795)”, the binding entry is “binds”. In the case of “Bromodomain-containing protein 2 (endogenous) (from UniProt P25440 1-801)” it was “binds”. In the case of “Bcl-2-associated transcription factor 1 (from UniProt Q9NYF8 1-920)”, the binding result is given as “binds”. On to “SAFB-like transcription modulator (from UniProt Q9NWH9 1-1034)”, for which the binding entry was “binds”.
